Test results from paper PMC9761386.

The chains behind the UniProt entries cited, without tags or fusion partners. Where a name states a change or a piece, a line headed by the entry shows the natural chain unless it says otherwise. A line that says so, or that is headed by a name, gives the form on record, which may keep a tag or linker. Residues count along the entry.
WT PD-L1 (programmed death ligand 1) tagged with GFP (Q9EP73, residues 19-290): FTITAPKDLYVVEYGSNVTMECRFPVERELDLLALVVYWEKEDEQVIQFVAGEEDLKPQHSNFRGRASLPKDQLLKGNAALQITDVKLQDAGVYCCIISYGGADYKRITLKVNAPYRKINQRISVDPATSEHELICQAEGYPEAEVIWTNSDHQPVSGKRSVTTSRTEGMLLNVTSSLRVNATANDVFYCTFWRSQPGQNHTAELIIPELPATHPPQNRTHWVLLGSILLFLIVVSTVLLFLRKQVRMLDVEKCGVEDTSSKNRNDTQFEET
PD-L1 with the TSS-AAA mutation in the cytoplasmic domain, tagged with GFP (Q9EP73, form named): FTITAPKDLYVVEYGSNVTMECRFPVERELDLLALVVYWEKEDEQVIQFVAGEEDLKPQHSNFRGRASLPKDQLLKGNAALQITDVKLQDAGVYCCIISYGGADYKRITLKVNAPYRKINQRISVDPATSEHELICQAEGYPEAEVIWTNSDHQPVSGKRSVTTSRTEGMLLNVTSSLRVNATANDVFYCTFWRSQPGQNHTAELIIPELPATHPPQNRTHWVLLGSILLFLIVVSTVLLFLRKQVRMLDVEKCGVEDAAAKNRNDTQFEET
UniProt Q922U2: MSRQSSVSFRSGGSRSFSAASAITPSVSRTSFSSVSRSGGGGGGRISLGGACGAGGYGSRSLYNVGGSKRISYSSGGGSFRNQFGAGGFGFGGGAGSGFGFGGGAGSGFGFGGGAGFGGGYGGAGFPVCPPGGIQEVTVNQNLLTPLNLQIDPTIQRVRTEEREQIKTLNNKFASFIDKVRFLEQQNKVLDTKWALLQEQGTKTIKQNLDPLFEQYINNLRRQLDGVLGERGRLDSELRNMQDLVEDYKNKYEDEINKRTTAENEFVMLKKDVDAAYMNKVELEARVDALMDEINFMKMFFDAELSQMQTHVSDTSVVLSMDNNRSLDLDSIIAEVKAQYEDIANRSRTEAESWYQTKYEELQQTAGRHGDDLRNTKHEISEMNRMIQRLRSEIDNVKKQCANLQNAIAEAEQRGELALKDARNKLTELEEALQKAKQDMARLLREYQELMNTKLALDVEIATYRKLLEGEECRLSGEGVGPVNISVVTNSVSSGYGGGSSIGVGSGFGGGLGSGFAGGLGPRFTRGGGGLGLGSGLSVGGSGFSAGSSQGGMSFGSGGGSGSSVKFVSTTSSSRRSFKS
UniProt P42227: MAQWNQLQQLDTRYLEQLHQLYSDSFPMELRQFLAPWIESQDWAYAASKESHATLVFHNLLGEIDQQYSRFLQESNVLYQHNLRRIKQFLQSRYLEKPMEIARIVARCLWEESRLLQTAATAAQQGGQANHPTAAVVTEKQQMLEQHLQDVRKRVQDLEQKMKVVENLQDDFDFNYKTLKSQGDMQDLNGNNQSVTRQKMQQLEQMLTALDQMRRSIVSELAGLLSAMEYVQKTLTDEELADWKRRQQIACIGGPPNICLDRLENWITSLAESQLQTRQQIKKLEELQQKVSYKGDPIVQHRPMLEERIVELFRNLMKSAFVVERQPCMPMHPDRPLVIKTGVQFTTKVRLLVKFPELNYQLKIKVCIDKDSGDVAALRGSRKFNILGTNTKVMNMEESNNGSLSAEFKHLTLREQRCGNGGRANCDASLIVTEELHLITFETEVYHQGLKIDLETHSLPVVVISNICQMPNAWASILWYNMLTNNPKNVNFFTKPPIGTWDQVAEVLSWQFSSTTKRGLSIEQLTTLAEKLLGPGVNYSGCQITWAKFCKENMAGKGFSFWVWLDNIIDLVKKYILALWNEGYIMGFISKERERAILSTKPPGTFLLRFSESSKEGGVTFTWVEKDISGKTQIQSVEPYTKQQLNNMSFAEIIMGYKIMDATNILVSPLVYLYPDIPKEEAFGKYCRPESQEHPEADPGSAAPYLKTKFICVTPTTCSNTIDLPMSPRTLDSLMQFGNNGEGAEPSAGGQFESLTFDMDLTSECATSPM
UniProt Q8C547: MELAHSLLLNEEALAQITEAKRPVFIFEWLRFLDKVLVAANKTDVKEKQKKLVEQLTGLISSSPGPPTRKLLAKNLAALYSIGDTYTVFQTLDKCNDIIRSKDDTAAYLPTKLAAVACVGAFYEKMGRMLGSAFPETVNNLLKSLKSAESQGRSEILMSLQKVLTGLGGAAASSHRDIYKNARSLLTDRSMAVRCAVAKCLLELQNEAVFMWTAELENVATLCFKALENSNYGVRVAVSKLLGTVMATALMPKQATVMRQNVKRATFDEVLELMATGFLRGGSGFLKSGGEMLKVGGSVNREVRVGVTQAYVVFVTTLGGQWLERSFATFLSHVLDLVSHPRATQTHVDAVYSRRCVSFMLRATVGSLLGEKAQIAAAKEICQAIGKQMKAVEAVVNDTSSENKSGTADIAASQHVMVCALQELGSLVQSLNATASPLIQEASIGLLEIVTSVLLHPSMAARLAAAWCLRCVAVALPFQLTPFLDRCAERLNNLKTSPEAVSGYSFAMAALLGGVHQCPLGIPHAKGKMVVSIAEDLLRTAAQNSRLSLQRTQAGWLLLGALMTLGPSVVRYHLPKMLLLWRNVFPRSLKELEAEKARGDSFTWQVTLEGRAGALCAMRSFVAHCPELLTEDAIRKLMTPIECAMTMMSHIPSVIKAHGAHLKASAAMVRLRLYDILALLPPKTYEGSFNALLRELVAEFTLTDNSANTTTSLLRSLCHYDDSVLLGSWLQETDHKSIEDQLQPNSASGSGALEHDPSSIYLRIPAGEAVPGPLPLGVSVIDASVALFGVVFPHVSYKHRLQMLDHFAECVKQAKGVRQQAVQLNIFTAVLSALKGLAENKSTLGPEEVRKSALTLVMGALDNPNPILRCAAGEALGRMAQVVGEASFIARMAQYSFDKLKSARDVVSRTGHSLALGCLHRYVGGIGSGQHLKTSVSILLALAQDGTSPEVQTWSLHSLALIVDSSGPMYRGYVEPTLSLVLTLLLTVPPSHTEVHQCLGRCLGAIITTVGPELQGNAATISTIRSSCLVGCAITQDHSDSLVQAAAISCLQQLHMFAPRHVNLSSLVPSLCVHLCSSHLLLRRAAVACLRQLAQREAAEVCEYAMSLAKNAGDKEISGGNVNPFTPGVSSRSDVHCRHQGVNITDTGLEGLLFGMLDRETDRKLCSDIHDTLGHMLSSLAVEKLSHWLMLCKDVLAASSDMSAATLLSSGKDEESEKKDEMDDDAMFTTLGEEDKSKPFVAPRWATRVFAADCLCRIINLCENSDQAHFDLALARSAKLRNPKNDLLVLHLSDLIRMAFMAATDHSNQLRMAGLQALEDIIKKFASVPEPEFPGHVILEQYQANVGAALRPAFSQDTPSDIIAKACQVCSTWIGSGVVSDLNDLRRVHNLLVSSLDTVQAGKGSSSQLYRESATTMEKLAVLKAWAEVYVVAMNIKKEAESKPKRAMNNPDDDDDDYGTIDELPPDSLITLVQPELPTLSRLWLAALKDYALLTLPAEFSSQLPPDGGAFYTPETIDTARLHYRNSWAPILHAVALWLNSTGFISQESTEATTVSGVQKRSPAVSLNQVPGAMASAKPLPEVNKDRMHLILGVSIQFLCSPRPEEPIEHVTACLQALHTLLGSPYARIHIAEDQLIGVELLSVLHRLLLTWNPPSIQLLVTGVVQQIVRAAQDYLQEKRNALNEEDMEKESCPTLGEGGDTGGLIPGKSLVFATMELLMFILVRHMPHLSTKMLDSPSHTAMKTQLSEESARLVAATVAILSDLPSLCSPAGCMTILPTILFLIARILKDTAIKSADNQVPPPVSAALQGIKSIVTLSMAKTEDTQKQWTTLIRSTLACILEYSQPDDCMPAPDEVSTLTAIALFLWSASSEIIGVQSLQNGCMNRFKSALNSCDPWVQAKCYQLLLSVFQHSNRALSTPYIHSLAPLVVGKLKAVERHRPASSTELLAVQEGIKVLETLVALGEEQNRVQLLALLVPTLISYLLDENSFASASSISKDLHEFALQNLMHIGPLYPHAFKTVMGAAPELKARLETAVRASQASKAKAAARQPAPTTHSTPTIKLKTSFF

What was measured:
[1] = target: PD-L1 with the TSS-AAA mutation in the cytoplasmic domain, tagged with GFP (mouse) (UniProt Q9EP73); assay: affinity purification with mass spectrometry; PD-L1-GFP immunoprecipitated from lysates of SVEC4-10 cells after sodium vanadate; peptides enriched for phosphopeptides (Fe-NTA) before LC-MS/MS; n = 3 samples per group
[2] = target: WT PD-L1 (programmed death ligand 1) tagged with GFP (mouse) (UniProt Q9EP73); assay: as above

| binding [1] | Molecule | binding [2] |
| --- | --- | --- |
| no binding | Keratin 5, phosphorylated (from UniProt Q922U2 1-580) | binds |
| – | STAT3 phosphorylated on Ser727 (from UniProt P42227 1-770) | binds |
| no binding | Heat repeat containing 5b, phosphorylated (from UniProt Q8C547 1-2070) | binds |
| binds | Pleckstrin Homology Like Domain Family B Member 2, phosphorylated (protein, UniProt Q8K1N2 1-1249, phosphorylated (site not given)) MAEDSHMQKQLEFQNGSLEEGFVVRSLENEPQNMMESLSPRKYSSSLKFKANGDYSGSYLTLSQPVSAKRSPSPMGTSVRSSPSLAKIQGSKQFCDGIDKNISMKPPISFLSSAASLGGYPLGKADLDHYTGRDSERSTRLSEKPPYSRYSSRNKSHDSVYFLGGLEGRKTSGSLLTMWNGNSLSCTGSSPISRSGAASMPSSPKQVRKMNLQDHSTLQPRLSRHKEPASENVSVRTRKYSGSSLSNMGAYSRSLPRLYKATDNQMSPLSLPPRSSLGNSRRGQLGEKDLPHSLVDSDNYLNFSSLSSGASPYKTCLSEGNPYVSSALSVPASPRVARKMLLASTSSDDFDRASYSGTSPSHSFISGEPDRVLVARRNFSCGSMELDDSDLESLRQSSETPQPVLRERKSSISSISGRDDLMDYHRRQREERLREQEMERLERQRLETILSLCAEYTKPEGRRLSAGTTVADVQKINKELEKLQLSDEESVFEDALVCPDARYRCHRKGSLQDVDVAGFGNLGHSASFLAPRGSRSDELLGDLTRTPPSSSAAFLKATNESSYLSILPKTPEDIGEEQRTQELAAMEDARMVILNNLEELEQKIKDINDQMDESSRELDMECALLDGEQKSETAELMKEKEILDHLNRKITELEKNIVGEKTKEKVKLDAEREKLERLQELYSEQKTQLDNCPESMREQLQQQLKRDADLLDVESKHFEDLEFQQLEHESRLDEEKENLTQQLLREVAEYQRNIVARKEKISALKKQASHIVQQAQREQDHFVKEKNNLIMMLQREKENLCNLEKKYSSLTGGKGFPINPNTLKEGYISVNEINESCGNSTNLSPSTQFPADADAAVTEPALAVPVSQPQSSEHFRSLEERKKQHKEGLYLSDTLPRKKTTPSLSPHFSSATMGRSTTPKAHLPLGQSNSCGSVLPHSLATMTKDSESRRMLRGYNHQQMSEGQRQKPEFYSRTASESNVYLNSFHYPDRSYKDQAYDTLSLDSSDSMETSISACSPDNISSASTSNIARIEEMERLLKQAHAEKTRLLESREREMEAKKRALEEEKRRREILEKRLQEETSQRQKLIEKEVKIREKQRAQARPLTRYLPVRKEDFDLRSHVETAGHNIDTCFHVSITEKTCRGYLIKMGGKIKTWKKRWFVFDRNKRTFSYYADKHEAKLKGVIYFQAIEEVYYDHLKNANKSPNPLLTFSVKTHDRIYYMVAPSPEAMRIWMDVIVTGAEGYTHFLL | – |
| binds | Drebin 1, phosphorylated (protein, UniProt Q9QXS6 1-706, phosphorylated (site not given)) MAGVSFSGHRLELLAAYEEVIREESAADWALYTYEDGSDDLKLAASGEGGLQELSGHFENQKVMYGFCSVKDSQAALPKYVLINWVGEDVPDARKCACASHVAKVAEFFQGVDVIVNASSVEDIDAGAIGQRLSNGLARLSSPVLHRLRLREDENAEPVGTTYQKTDAAVEMKRINREQFWEQAKKEEELRKEEERKKALDARLRFEQERMEQERQEQEERERRYREREQQIEEHRRKQQSLEAEEAKRRLKEQSIFGDQRDEEEESQMKKSESEVEEAAAIIAQRPDNPREFFRQQERVASASGGSCDAPAPAPFNHRPGRPYCPFIKASDSGPSSSSSSSSSPPRTPFPYITCHRTPNLSSSLPCSHLDSHRRMAPTPIPTRSPSDSSTASTPIAEQIERALDEVTSSQPPPPPPPPPPTQEAQETTPSLDEELSKEAKVTAAPEVWAGCAAEPPQAQEPPLLQSSPLEDSMCTESPEQAALAAPAEPAASVTSVADVHAADTIETTTATTDTTIANNVTPAAASLIDLWPGNGEEASTLQAEPRVPTPPSGAEASLAEVPLLNEAAQEPLPPVGEGCANLLNFDELPEPPATFCDPEEEVGETLAASQVLTMPSALEEVDQVLEQELEPEPHLLTNGETTQKEGTQASEGYFSQSQEEEFAQSEEPCAKVPPPVFYNKPPEIDITCWDADPVPEEEEGFEGGD | – |
| – | Rho GTPase Activating Protein 35, phosphorylated (protein, UniProt Q91YM2 1-1499, phosphorylated (site not given)) MMMARKQDVRIPTYNISVVGLSGTEKEKGQCGIGKSCLCNRFVRPSADEFHLDHTSVLSTSDFGGRVVNNDHFLYWGEVSRSLEDCVECKMHIVEQTEFIDDQTFQPHRSTALQPYIKRAAATKLASAEKLMYFCTDQLGLEQDFEQKQMPDGKLLVDGFLLGIDVSRGMNRNFDDQLKFVSNLYNQLAKTKKPIVVVLTKCDEGVERYIRDAHTFALSKKNLQVVETSARSNVNVDLAFSTLVQLIDKSRGKTKIIPYFEALKQQSQQIATAKDKYEWLVSRIVKNHNENWPSVSRKMQASPEYQDYVYLEGTQKAKKLFLQHIHRLKHEHIERRRKLYLAALPLAFEALIPNLDEVDHLSCIKAKKLLETKPEFLKWFVVLEETPWDATSHIDNMENERIPFDLMDTVPAEQLYETHLEKLRNERKRAEMRRAFKENLETSPFITPGKPWEEARSFIMNEDFYQWLEESVYMDIYGKHQKQIIDRAKEEFQELLLEYSELFYELELDAKPSKEKMGVIQDVLGEEQRFKALQKLQAERDALILKHIHFVYHPTKETCPSCPACVDAKIEHLISSRFIRPSDRNQKNSLSDLNIDRINLVILGKDGLARELANEIRALCTNDDKYVIDGKMYELSLRPIEGNVRLPVNSFQTPTFQPHGCLCLYNSKESLSYVVESIEKSRESTLGRRDNHLVHLPLTLILVNKRGDTSGETLHSLIQQGQQIASKLQCVFLDPASAGIGYGRNINEKQISQVLKGLLDSKRNLNLVSSTASIKDLADVDLRIVMCLMCGDPFSADDVLSPVLQSQTCKSSHCGSSNSVLLELPIGLHKKRIELSVLSYHSSFSIRKSRLVHGYIVFYSAKRKASLAMLRAFLCEVQDIIPIQLVALTDGAIDVLDNDLSREQLTEGEEIAQEIDGRFTSIPCSQPQHKLELFHPFFKDVVEKKNIIEATHMYDNVAEACSTTEEVFNSPRAGSPLCNSNLQDSEEDVEPPSYHLFREDATLPSLSKDHSKFSMELEGNDGLSFIMSNFESKLNNKVPPPVKPKPPVHFDITKDLSYLDQGHREGQRKSMSSSPWMPQDGFDPSDYAEPMDAVVKPRNEEENIYSVPHDSTQGKIITIRNINKAQSNGSGNGSDSEMDTSSLERGRKVSAVSKPVLYRTRCTRLGRFASYRTSFSVGSDDELGPIRKKEEDQASQGYKGDNAVIPYETDEDPRRRNILRSLRRNTKKPKPKPRPSITKATWESNYFGVPLTTVVTPEKPIPIFIERCIEYIEATGLSTEGIYRVSGNKSEMESLQRQFDQDHNLDLAEKDFTVNTVAGAMKSFFSELPDPLVPYSMQIDLVEAHKINDREQKLHALKEVLKKFPKENHEVFKYVISHLNKVSHNNKVNLMTSENLSICFWPTLMRPDFSSMDALTATRSYQTIIELFIQQCPFFFYNRPISEPPGAAPGSPSAMAPTVPFLTSTPATSQPSPPQSPPPTPQSPMQPLLSSQLQAEHTL | binds |
| no binding | MDA5, phosphorylated (protein, UniProt Q8R5F7 1-1025, phosphorylated (site not given)) MSIVCSAEDSFRNLILFFRPRLKMYIQVEPVLDHLIFLSAETKEQILKKINTCGNTSAAELLLSTLEQGQWPLGWTQMFVEALEHSGNPLAARYVKPTLTDLPSPSSETAHDECLHLLTLLQPTLVDKLLINDVLDTCFEKGLLTVEDRNRISAAGNSGNESGVRELLRRIVQKENWFSTFLDVLRQTGNDALFQELTGGGCPEDNTDLANSSHRDGPAANECLLPAVDESSLETEAWNVDDILPEASCTDSSVTTESDTSLAEGSVSCFDESLGHNSNMGRDSGTMGSDSDESVIQTKRVSPEPELQLRPYQMEVAQPALDGKNIIICLPTGSGKTRVAVYITKDHLDKKKQASESGKVIVLVNKVMLAEQLFRKEFNPYLKKWYRIIGLSGDTQLKISFPEVVKSYDVIISTAQILENSLLNLESGDDDGVQLSDFSLIIIDECHHTNKEAVYNNIMRRYLKQKLRNNDLKKQNKPAIPLPQILGLTASPGVGAAKKQSEAEKHILNICANLDAFTIKTVKENLGQLKHQIKEPCKKFVIADDTRENPFKEKLLEIMASIQTYCQKSPMSDFGTQHYEQWAIQMEKKAAKDGNRKDRVCAEHLRKYNEALQINDTIRMIDAYSHLETFYTDEKEKKFAVLNDSDKSDDEASSCNDQLKGDVKKSLKLDETDEFLMNLFFDNKKMLKKLAENPKYENEKLIKLRNTILEQFTRSEESSRGIIFTKTRQSTYALSQWIMENAKFAEVGVKAHHLIGAGHSSEVKPMTQTEQKEVISKFRTGEINLLIATTVAEEGLDIKECNIVIRYGLVTNEIAMVQARGRARADESTYVLVTSSGSGVTEREIVNDFREKMMYKAINRVQNMKPEEYAHKILELQVQSILEKKMKVKRSIAKQYNDNPSLITLLCKNCSMLVCSGENIHVIEKMHHVNMTPEFKGLYIVRENKALQKKFADYQTNGEIICKCGQAWGTMMVHKGLDLPCLKIRNFVVNFKNNSPKKQYKKWVELPIRFPDLDYSEYCLYSDED | binds |

Results are given in words; binding and its absence hold for the method and conditions named. Binding seen in cells or lysates may run through a third protein. Here binding means that the protein was enriched with, or labelled near, the bait; the list need not be complete. For some of these results: A no says only that the protein was not detected with the bait.
